Drawing on patent US8129368B2, “5,6-dihydro-1H-pyridin-2-one compounds” (priority 2008, dated 2012), this text covers EC50 for 1 molecule.

The test system of this assay is HCV Huh-luc/neo-ET replicon cells. Nature of the assay: Luciferase-Based HCV Replicon Assay (EC50 (1b)). It counts as cell-based. As to conditions: Hepatitis C virus, 72 h, read-out: EC50(1b) concentration. The method, then: Luciferase-Based HCV Replicon Assay Protocol (EC50 (1b))
The cell culture component of the assay is performed essentially as described by Bartenschlager et al., Hepatology 2002, 35, 694-703, wherein exponentially growing HCV Huh-luc/neo-ET replicon cells were seeded at 6×10^3 cells/well in 96 well assay plate. 24 hours later the cells were treated with various concentrations of compound or combination of compounds in triplicate using both fixed ratios and checkerboard matrices of test agents and cultured for 72 hours. The luciferase activity in the wells was determined using Bright-Glo reagent (Promega, Madison, Wis.) with a luminometer (Wallac 1420 Multilabel HTS Counter Victor 2). The background control was replicon cells treated with 100 nM BILN-2061, an inhibitor of the HCV protease. % Inhibition was determined for each compound concentration in relation to the negative (no compound) control to calculate the EC50(1b).
Background: In antiviral work, replicon cells carry a viral genome segment that copies itself.

Turning to `Cc1cc(CN2C(=O)C(C3=Nc4ccc(NS(C)(=O)=O)cc4S(=O)(=O)N3)=C(O)[C@@H]3[C@@H]4CC[C@@H](C4)[C@@H]32)ccc1F` [Example 19, N-{3-[(1S,2S,7R,8R)-3-(4-Fluoro-3-methyl-benzyl)-6-hydroxy-4-oxo-3-aza-tricyclo[6.2.1.0^2,7]undec-5-en-5-yl]-1,1-dioxo-1,2-dihydro-1λ^6-benzo[1,2,4]thiadiazin-7-yl}-methanesulfonamide], the EC50 was below 25 nM.
